pIC50: −log10 of the molar value. The structures given here were assigned with low confidence; some may be wrong.
Legend:
Pfeiffer cells = assay: Proliferation inhibition of Pfeiffer tumor cells, Cell Titer-Glo; conditions: read-out: CTG IC50, 144 hours incubation
Text: In this experiment, Cell Titer-Glo reagent was used to quantitatively analyze the proliferation activity of Pfeiffer cells to detect the inhibitory ability of the compounds on tumor cell proliferation. The specific steps were as follows: • 1. Pfeiffer cells were purchased from Nanjing Cobioer (purchased from ATCC, Catalog No. #CRL2632), subcultured and maintained in logarithmic growth state using RPMI-1640 complete medium (containing 10% v/v fetal bovine serum) according to the supplier's recommended conditions. […] Before cell seeding, cells were collected in a centrifuge tube, centrifuged at 250 rcf for 3 minutes, and the culture medium was discarded. The cells were resuspended in fresh complete medium, and 20 µL of the cell suspension was taken to calculate the cell concentration using a Countstar cell counter. After adjusting the density, cells were seeded into a 384-well plate at 2,000 cells/45 µL and pre-incubated in a 37°C, 5% CO2 incubator for 4 hours. • 3. The negative and positive control groups were treated with 5 µL of control solution (non-complete medium containing 1% v/v DMSO). Compound gradient dilutions were prepared using non-complete medium, and 5 µL of the dilutions were added to the corresponding culture wells. The final concentration of DMSO in the test was 0.1% v/v. Subsequently, the plate was incubated in a 37°C, 5% CO2 incubator for 144 hours. • 4. 40 µL of Cell Titer-Glo reagent was added directly to the cell culture, and the plate was incubated at room temperature in the dark for 30 minutes. The luminescence value was then read on a plate reader, and the results were used to analyze the cell proliferation ratio and compound activity. • 5. The signal value of the negative control group was set as Bottom, and the signal value of the positive control group was set as Top. The compound concentration value (logarithm) was the X-axis, and the luminescence reading at the corresponding concentration was the Y-axis, with HillSlope as the slope factor. A four-parameter logistic model (4PL logistic model) was used for fitting, and the calculation method was as follows:Y = Bottom + (Top - Bottom) / (1 + 10^((Log IC50 - X) × HillSlope))
After fitting, the IC50 value of the compound was calculated, and the proliferation inhibitory activity of the compound was compared based on the IC50 value.

Chains of the proteins cited; added tags and fusions are not shown.
UniProt O75530, whole entry: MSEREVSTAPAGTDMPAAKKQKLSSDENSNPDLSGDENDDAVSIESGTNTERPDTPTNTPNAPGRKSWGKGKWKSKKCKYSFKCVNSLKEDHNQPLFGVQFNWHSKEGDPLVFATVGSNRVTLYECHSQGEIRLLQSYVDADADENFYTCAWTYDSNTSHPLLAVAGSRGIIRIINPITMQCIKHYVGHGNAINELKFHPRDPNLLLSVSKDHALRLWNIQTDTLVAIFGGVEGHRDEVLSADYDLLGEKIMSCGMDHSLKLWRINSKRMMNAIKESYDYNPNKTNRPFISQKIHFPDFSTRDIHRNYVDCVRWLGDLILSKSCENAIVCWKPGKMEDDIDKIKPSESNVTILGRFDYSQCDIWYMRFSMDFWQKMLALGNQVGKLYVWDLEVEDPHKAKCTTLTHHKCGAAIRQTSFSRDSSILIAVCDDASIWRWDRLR

EED protein = EED protein (Homo sapiens, UniProt O75530); assay: EED protein degradation in Karpas-422 cells, In-cell western (ICW); conditions: 18 hours incubation
Text: In this experiment, In-cell western (ICW) method was used to quantitatively analyze the EED protein expression level in Karpas-422 cells to detect the degradation activity of the compounds on the target protein. The specific steps were as follows: • 1. Karpas-422 cells were purchased from Nanjing Cobioer (Catalog No. CBP60629), subcultured and maintained in logarithmic growth state using RPMI-1640 complete medium (containing 10% v/v fetal bovine serum) according to the supplier's recommended conditions. […] One day before cell seeding, a 384-well plate was coated with 30 µL of coating buffer (phosphate buffered saline containing 30 µg/mL poly-D-lysine) at room temperature for 2 hours. The coating solution was then discarded, and the plate was washed once with 90 µL of phosphate buffered saline, which was then discarded. The plate was allowed to air dry naturally in a clean bench, wrapped around the edges with Parafilm to prevent moisture, and stored in a 4°C refrigerator until use. • 3. Before cell seeding, cells were collected in a centrifuge tube, centrifuged at 250 rcf for 3 minutes, and the culture medium was discarded. The cells were resuspended in fresh complete medium, and 20 µL of the cell suspension was taken to calculate the cell concentration using a Countstar cell counter. After adjusting the density, cells were seeded into the prepared coated plate at 15,000 cells/45 µL and pre-incubated in a 37°C, 5% CO2 incubator for 4 hours. • 4. The negative and positive control groups were treated with 5 µL of control solution (serum-free medium containing 1% v/v DMSO). Compound gradient dilutions were prepared using the control solution, and 5 µL of the dilutions were added to the corresponding culture wells. The final concentration of DMSO in the test was 0.1% v/v. Subsequently, the plate was incubated in a 37°C, 5% CO2 incubator for 18 hours. • 5. The culture plate was removed, and cells were fixed by directly adding 10 µL of fixative solution (phosphate buffered saline containing 3% v/v glutaraldehyde) to the cells and incubating at room temperature for 30 minutes. The liquid was discarded. Subsequently, cells were treated with 30 µL of permeabilization staining solution (phosphate buffered saline containing 0.1% v/v Triton X-100 and 20 µg/mL Hoechst 33342) at room temperature for 30 minutes. The permeabilization solution was discarded, and the fluorescence value (excitation at 360 nm, emission at 460 nm) was read on a microplate reader. • 6. 50 µL of repair solution (50 mM citric acid buffer) was added to all wells, and the plate was incubated at 70°C for 2 hours on a constant temperature incubation shaker. The microplate was then removed, equilibrated to room temperature, and the liquid was discarded. • 7. A sufficient amount of antibody dilution buffer (Tris Buffered Saline-Tween solution containing 1% w/v bovine serum albumin) was prepared and stored in a 4°C refrigerator until use. • 8. Primary antibody dilution (EED antibody diluted 1:1000 with antibody dilution buffer) was prepared. 30 µL of antibody dilution buffer without antibody was added to the negative control group. 30 µL of the primary antibody dilution was added to the cells in the other groups, and the plate was incubated overnight at 4°C. • 9. The primary antibody dilution was discarded. The plate was washed 3 times with 90 µL of Tris Buffered Saline-Tween solution, and the wash solution was discarded. Secondary antibody dilution (HRP-linked antibody diluted 1:500 with antibody dilution buffer) was prepared, and 30 µL was added to the cells. The plate was incubated at room temperature for 2 hours. • 10. The secondary antibody dilution was discarded. The plate was washed 3 times with 90 µL of Tris Buffered Saline-Tween solution, and the wash solution was discarded. 30 µL of TMB substrate solution was added, and the plate was incubated at room temperature in the dark for 15 minutes. Then, 30 µL of stop solution (2 M sulfuric acid) was added to terminate the reaction. […]

| pIC50 (Pfeiffer cells) | Dmax (EED protein) | SMILES |
| --- | --- | --- |
| 9.30 | 65% | Cc1nc(C2CCN(CC3CCN(c4ccc5c(c4)n(C)c(=O)n5C4CCC(=O)NC4=O)CC3)CC2)ccc1-c1cnc(NCc2c(F)ccc3c2CCO3)n2cc(C(N)=O)nc12 (centres unmarked) |
| 6.68 | 73% | Cc1ncsc1-c1ccc([C@H](C)NC(=O)[C@@H]2C[C@@H](O)CN2C(=O)[C@@H](NC(=O)CNC2CN(c3ccc(-c4cnc(NCc5c(F)ccc6c5CCO6)n5cnnc45)cn3)C2)C(C)(C)C)cc1 |
| 8.66 | 48% | Cc1nc(CN2CCC(N3CCN(c4ccc5c(C6CCC(=O)NC6=O)nn(C)c5c4)CC3)C(F)(F)C2)ccc1-c1cnc(NCc2c(F)ccc3c2CCO3)n2cnc(Cl)c12 (centres unmarked) |
| 9.12 | 62% | Cc1cc(-c2cnc(NCc3c(F)ccc4c3CCO4)n3cnc(Cl)c23)ccc1C1CCN(CC2CCN(c3ccc4c(C5CCC(=O)NC5=O)nn(C)c4c3)CC2)CC1 (centres unmarked) |
| 7.82 | 41% | Cc1nc(C2CCN(CC3CCN(c4ccc5c(c4)n(C)c(=O)n5C4CCC(=O)NC4=O)CC3)CC2)ccc1-c1cnc(NCc2c(F)ccc3c2CCO3)n2cnc(Cl)c12 (centres unmarked) |
| 8.61 | 51% | Cc1nc(-c2cnc(NCc3c(F)ccc4c3CCO4)n3cnc(Cl)c23)ccc1CN1CCC(N2CCN(c3ccc4c(C5CCC(=O)NC5=O)nn(C)c4c3)CC2)C(F)(F)C1 (centres unmarked) |
| 6.62 | 31% | Cc1ncsc1-c1ccc(CNC(=O)[C@@H]2C[C@@H](O)CN2C(=O)[C@@H](NC(=O)C2CN(c3ccc(-c4cnc(NCc5c(F)ccc6c5CCO6)n5cnnc45)cc3)C2)C(C)C)cc1 |
| 8.38 | 50% | Cn1c(=O)n(C2CCC(=O)NC2=O)c2ccc(N3CCC(CN4CCC(c5ccc(-c6cnc(NCc7c(F)ccc8c7CCO8)n7cnc(Cl)c67)c(C(F)(F)F)n5)CC4)CC3)cc21 (centres unmarked) |
| 9.00 | 69% | Cn1nc(C2CCC(=O)NC2=O)c2ccc(N3CCC(CN4CCC(c5ncc(-c6cnc(NCc7c(F)ccc8c7CCO8)n7cc(C#N)nc67)cn5)CC4)CC3)cc21 (centres unmarked) |
| 9.46 | 69% | Cn1nc(C2CCC(=O)NC2=O)c2ccc(N3CCC(F)(CN4CCC(c5ncc(-c6cnc(NCc7c(F)ccc8c7CCO8)n7cnc(Cl)c67)cn5)CC4)CC3)cc21 (centres unmarked) |
| 9.40 | 65% | Cn1nc(C2CCC(=O)NC2=O)c2ccc(N3CCC(CN4CCC(NC(=O)c5ccc(-c6cnc(NCc7c(F)ccc8c7CCO8)n7cnc(Cl)c67)cc5)CC4)CC3)cc21 (centres unmarked) |
| 9.00 | 65% | Cn1nc(C2CCC(=O)NC2=O)c2ccc(N3CCC(CN4CCC(c5ccc(-c6cnc(NCc7c(F)ccc8c7CCO8)n7cnc(C#N)c67)cc5)CC4)CC3)cc21 (centres unmarked) |
| 8.42 | 52% | Cn1c(=O)n(C2CCC(=O)NC2=O)c2ccc(N3CCC(CN4CCC(c5ccc(-c6cnc(NCc7c(F)ccc8c7CCO8)n7cnc(S(C)(=O)=O)c67)c(C(F)(F)F)n5)CC4)CC3)cc21 (centres unmarked) |
| 8.15 | 72% | Cn1nc(C2CCC(=O)NC2=O)c2ccc(N3CCC(CN4CCC(NC(=O)c5ccc(-c6cnc(NCc7c(F)ccc8c7CCO8)n7cnc(Cl)c67)cn5)CC4)C(F)(F)C3)cc21 (centres unmarked) |
| 7.70 | 64% | Cn1nc(C2CCC(=O)NC2=O)c2ccc(N3CCC(CN4CCC(n5ncc(-c6cnc(NCc7c(F)ccc8c7CCO8)n7cnc(Cl)c67)c5C(F)(F)F)CC4)CC3)cc21 (centres unmarked) |
| 6.96 | 44% | Cc1cc(CN2CCC(N3CCN(c4ccc(NC5CCC(=O)NC5=O)cc4F)CC3)C(F)(F)C2)ccc1-c1cnc(NCc2c(F)ccc3c2CCO3)n2cc(C#N)nc12 (centres unmarked) |
| 8.23 | 47% | Cn1nc(C2CCC(=O)NC2=O)c2ccc(N3CCN(C4CCN(Cc5ccc(-c6cnc(NCc7c(F)ccc8c7CCO8)n7cnc(Cl)c67)cc5)CC4(F)F)CC3)cc21 (centres unmarked) |
| 8.00 | 73% | Cc1ncsc1-c1ccc([C@H](C)NC(=O)[C@@H]2C[C@@H](O)CN2C(=O)[C@@H](NC(=O)CCCNC(=O)c2ccc(-c3cnc(NCc4c(F)ccc5c4CCO5)n4cnc(Br)c34)cn2)C(C)(C)C)cc1 |
| 8.82 | 78% | Cn1nc(C2CCC(=O)NC2=O)c2ccc(N3CCC(CN4CCC(NC(=O)c5ccc(-c6cnc(NCc7c(F)ccc8c7CCO8)n7cnc(Cl)c67)c(C(F)(F)F)n5)CC4)CC3)cc21 (centres unmarked) |
| 7.31 | 32% | O=C1CCC(N2C(=O)c3ccc(N4CCC(CN5CCC(c6ccc(-c7cnc(NCc8c(F)ccc9c8CCO9)n8cnc(Cl)c78)cc6)CC5)CC4)cc3C2=O)C(=O)N1 (centres unmarked) |
| 8.80 | 65% | Cn1nc(C2CCC(=O)NC2=O)c2ccc(N3CCC(CN4CCC(c5ccc(-c6cnc(NCc7c(F)ccc8c7CCO8)n7cc(C#N)nc67)cc5)CC4)CC3)cc21 (centres unmarked) |
| 7.28 | 81% | Cc1ncsc1-c1ccc([C@H](C)NC(=O)[C@@H]2C[C@@H](O)CN2C(=O)[C@@H](NC(=O)CCCNC(=O)c2ccc(-c3cnc(NCc4c(F)ccc5c4CCO5)n4cnc(C(F)(F)F)c34)cn2)C(C)(C)C)cc1 |
